Data published in PubChem BioAssay AID504444 (National Center for Advancing Translational Sciences (NCATS), 2011).
About 7,500 (2.1%) of roughly 360,000 compounds were called active. The shares of active, inactive and inconclusive entries below differ from those in the screen. Calls come from the whole dose curve; as a rule, active = well fitted inhibition curve with a large enough effect; inconclusive = small, poorly fitted or top-dose-only effect, or effect the other way; inactive = flat fitted curve, though single readings scatter. Potencies beside an inconclusive call are fits to weak or partial responses and may not hold up.

Test: Nrf2 qHTS screen for inhibitors; note: nearly all actives have a fitted effect of over 60% in size
Conditions: A549 ARE-Fluc reporter, luciferase luminescence, 18-24 h; series mostly up to 46 µM
Summary of the method: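 Two sequential reads on A549 ARE_Fluc cells exposed to compound for 18-24 h: a CellTiter-Fluor fluorescence read for viability, then a luciferase luminescence read for Nrf2/ARE activity.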
Potency is the fitted concentration of half-maximal effect.

SMILES | Potency
Cc1ccc(CNC(=O)c2sc3nc4n(c(=O)c3c2C)CCCC4)cc1 | inconclusive: 29.1 µM [falling, single point]
NC(=O)c1ccsc1NC(=O)c1coc2ccccc2c1=O | inconclusive: 5.8 µM [activator, partial curve]
c1ccc(-n2cnnc2SCc2nc3ccccc3s2)cc1 | inconclusive: 10.3 µM [activator, partial curve, poor fit]
OC1c2cc(Cl)ccc2-c2c(Cl)cc(Cl)cc21 (centres undefined) | inconclusive: 14.6 µM [activator, partial curve, poor fit]
CC1CCCCN1C(=O)Cn1c(=O)oc2cc(S(=O)(=O)N3CCCC3)ccc21 (centres undefined) | inactive
CN(C)S(=O)(=O)c1ccc2c(c1)Cc1cc(S(=O)(=O)N(C)C)ccc1-2 | inactive
COc1cc(Nc2cc(C)nc3nc(C)nn23)cc(OC)c1OC | inconclusive: 29.1 µM [falling, single point]
NC(=O)c1cc(S(=O)(=O)NCCCc2ccccc2)cs1 | inconclusive: 23.1 µM [falling, partial curve]
O=S(=O)(NC(=S)c1ccccc1)c1ccccc1 | inconclusive: 10.3 µM [falling, partial curve, poor fit]
CC(C)c1nc(C#N)c(NCCCn2ccnc2)o1 | inconclusive: 14.6 µM [activator, partial curve, poor fit]
O=C(c1ccc2c(c1)N(Cc1ccc(F)cc1)CCS2)N1CCN(c2ccccc2)CC1 | active: 20.6 µM
COc1cc(C2C(C#N)=C(N)N(Nc3ccccc3)C3=C2C(=O)CC(C)(C)C3)ccc1OCc1cccc(F)c1 (centres undefined) | inconclusive: 23.1 µM [falling, single point]
COc1ccc2oc(=O)c(-c3csc(Nc4cccc(O)c4)n3)cc2c1 | inactive
CNC(=S)N(CCc1c(C)[nH]c2ccc(Cl)cc12)Cc1cccnc1 | inconclusive: 32.6 µM [falling, single point]
CC1CCN(C(=O)CSc2nc(-c3ccc(C(C)C)cc3)no2)CC1 | inconclusive: 29.1 µM [falling, single point]
CC(=NNC(=S)N1CCCCC1)c1cccc(C)n1 | inconclusive: 2.59 µM [falling, full curve, poor fit]
CCC1CCCCN1CCCNC(=O)c1ccc2c(c1)N(Cc1ccccc1F)C(=O)c1ccccc1S2(=O)=O (centres undefined) | inconclusive: 16.4 µM [activator, partial curve]
COc1ccc(S(=O)(=O)N(C)c2ccc(C(=O)Nc3cccnc3)cc2)cc1 | inconclusive: 32.6 µM [falling, single point]
S=c1[nH]nc(Cc2cccs2)n1-c1ccccc1Cl | active: 16.4 µM
Cc1ccccc1C(=O)NC(=S)NCc1ccccc1 | inactive
O=C(O)c1ccccc1NN=C1CCCCC1 | inconclusive: 29.1 µM [activator, single point]
O=C1c2cccc3cc([N+](=O)[O-])cc(c23)C(=O)N1CCN1CCCC1 | active: 1.84 µM

SMILES | Potency
COc1ccccc1CN1CCNC(=O)C1CC(=O)NC1Cc2ccccc2C1 (centres undefined) | inconclusive: 18.4 µM [falling, partial curve]
COc1ccc2nc3oc(C(=O)N4CCCCC4)cc3cc2c1 | inconclusive: 2.06 µM [activator, partial curve, poor fit]
COc1ccc2cc(C(C)C(=O)N3CCC(C(N)=O)CC3)ccc2c1 (centres undefined) | inconclusive: 29.1 µM [activator, single point]
Cc1cc(C)c2c(N)c(C(=O)NN3CC(=O)N(c4ccccc4)CC3=O)sc2n1 | inactive
O=C(NCCCN1CCCC1=O)c1sc2ccccc2c1Cl | inconclusive: 20.6 µM [activator, partial curve, poor fit]
COc1ccc(C(=O)Nc2nnc(SCC(=O)NCc3ccco3)s2)c(OC)c1 | inconclusive: 0.206 µM [activator, full curve]
Cc1ccc(C)c(NC(=O)CCc2nc(-c3ccc(C(C)(C)C)cc3)no2)c1 | inconclusive: 20.6 µM [falling, single point]
COc1cc2ncc(S(=O)(=O)c3ccccc3)c(N3CCCC(C)C3)c2cc1OC (centres undefined) | active: 23.1 µM
COc1cc(SC)ccc1C(=O)OCC(=O)NC1CCCC1 | inconclusive: 29.1 µM [activator, single point]
O=C(C[C@H]1C/C=C\CC[C@H](Cc2ccc(F)cc2)C(=O)O[C@@H](c2ccccc2)CNC1=O)N[C@H](CO)Cc1ccccc1 | inactive
CN(C)CCCn1c(SCC(=O)N2c3ccccc3Sc3ccccc32)nc2ccccc2c1=O | inactive
CN(C)CC1CC/C(=C\c2ccc(O)cc2)C1=O (centres undefined) | inactive
O=C(CCNS(=O)(=O)c1ccc2c(c1)CCCC(=O)N2)NCc1ccccc1Cl | inconclusive: 0.651 µM [falling, full curve, poor fit]
COc1ccc(CN(C(=O)c2snc(C(N)=O)c2N)C(C(=O)NC2CCCC2)c2ccco2)cc1 (centres undefined) | inconclusive: 20.6 µM [falling, partial curve, poor fit]
CCCCCCCCCCCC1=C(O)C(=O)C=C(O)C1=O | inactive
O=C(Nc1ccon1)c1ccc(Cl)c(S(=O)(=O)N2CCCCC2)c1 | inconclusive: 11.6 µM [falling, partial curve, poor fit]
Cc1nc2sccn2c(=O)c1S(=O)(=O)Nc1ccc(N2CCN(S(C)(=O)=O)CC2)cc1 | inconclusive: 29.1 µM [falling, single point]
CC(C)(C)NC(=O)COc1ccc(CNc2ncn[nH]2)cc1 | inactive
COc1cc(/C=N/c2oc(-c3ccccc3)cc2C#N)ccc1O | inactive
O=C(Nc1ccc(N2CCCCC2)cc1)c1cccnc1 | inconclusive: 4.11 µM [activator, full curve, poor fit]
Cc1nc2ccc(NC(=O)CCS(=O)(=O)c3ccccc3)cc2s1 | inconclusive: 6.51 µM [activator, partial curve]
Cc1ccc(/C=[N+](\[O-])c2ccc(N(C)C)cc2)c2nsnc12 | inconclusive: 20.6 µM [activator, partial curve]

10 compounds out of the list, ordered by length of the SMILES, low to high.
SMILES | Potency
O=C(NCCCN1CCCC1=O)c1sc2ccccc2c1Cl | inconclusive: 20.6 µM [activator, partial curve, poor fit]
COc1ccc2nc3oc(C(=O)N4CCCCC4)cc3cc2c1 | inconclusive: 2.06 µM [activator, partial curve, poor fit]
CC(C)(C)NC(=O)COc1ccc(CNc2ncn[nH]2)cc1 | inactive
COc1cc(/C=N/c2oc(-c3ccccc3)cc2C#N)ccc1O | inactive
COc1ccccc1CN1CCNC(=O)C1CC(=O)NC1Cc2ccccc2C1 (centres undefined) | inconclusive: 18.4 µM [falling, partial curve]
O=C(Nc1ccon1)c1ccc(Cl)c(S(=O)(=O)N2CCCCC2)c1 | inconclusive: 11.6 µM [falling, partial curve, poor fit]
Cc1ccc(/C=[N+](\[O-])c2ccc(N(C)C)cc2)c2nsnc12 | inconclusive: 20.6 µM [activator, partial curve]
COc1ccc(C(=O)Nc2nnc(SCC(=O)NCc3ccco3)s2)c(OC)c1 | inconclusive: 0.206 µM [activator, full curve]
Cc1ccc(C)c(NC(=O)CCc2nc(-c3ccc(C(C)(C)C)cc3)no2)c1 | inconclusive: 20.6 µM [falling, single point]
Cc1nc2sccn2c(=O)c1S(=O)(=O)Nc1ccc(N2CCN(S(C)(=O)=O)CC2)cc1 | inconclusive: 29.1 µM [falling, single point]
